The source of these data is article PMC11552566.

These are yes or no findings as the source states them, for the method shown. In cells and extracts the contact can be indirect. Where a sequence is shown, tags or fusion partners need not be part of it.

The target of the assay is T1, STAT1 lacking the protein interaction domain (△1-121aa, △STAT_int-Flag) (UniProt P42225).
T1 sequence: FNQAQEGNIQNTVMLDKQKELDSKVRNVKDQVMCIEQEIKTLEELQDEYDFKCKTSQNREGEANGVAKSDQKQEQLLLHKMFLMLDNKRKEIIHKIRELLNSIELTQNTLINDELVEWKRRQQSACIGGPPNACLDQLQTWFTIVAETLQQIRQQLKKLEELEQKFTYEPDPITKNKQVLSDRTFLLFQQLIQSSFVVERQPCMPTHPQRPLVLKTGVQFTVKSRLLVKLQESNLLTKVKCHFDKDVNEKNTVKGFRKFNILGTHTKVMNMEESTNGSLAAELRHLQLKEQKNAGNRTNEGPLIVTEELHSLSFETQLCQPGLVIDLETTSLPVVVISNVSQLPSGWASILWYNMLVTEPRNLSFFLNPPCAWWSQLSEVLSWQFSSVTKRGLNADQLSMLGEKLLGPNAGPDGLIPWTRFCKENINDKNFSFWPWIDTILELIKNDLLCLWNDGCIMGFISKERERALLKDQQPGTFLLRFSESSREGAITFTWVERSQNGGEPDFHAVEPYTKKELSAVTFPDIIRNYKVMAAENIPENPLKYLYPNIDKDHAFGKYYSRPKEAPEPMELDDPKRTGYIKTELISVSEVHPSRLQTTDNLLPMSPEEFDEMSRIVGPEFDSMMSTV
The assay can be described thus: co-IP; extracts of HEK293T cells transfected with HA-GR and Flag-STAT1 plasmids (full length or truncations), immunoprecipitated with HA antibodies (Figure 5G) or Flag antibodies (Figure 5H).

As to full-length GR (GR-HA) (receptor), the binding result is “no binding”.
